Measurements from “University of Dundee, Small-Polar-MMV Screening Library” (2021), ChEMBL document CHEMBL3988442.

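Whole-parasite assay of Trypanosoma brucei over 72 hours; the read-out is not stated. Tested at 30 µM. Direction is inferred from retests: higher values go with stronger inhibition. Values scatter widely below zero; nearly all retest evidence comes from the higher of the two concentrations used. About 64,000 compounds were tested under these conditions; 1.5% (about 940) showed 50% or more at least once.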

Values are the deposited “Percent Effect”, in %. The controls that fix the scale are not given in the record; negative values are as filed. This is an unselected part of the compounds tested.

{"smiles": "CC(=O)Nc1cccc(CN2CCN(C3=NCC(C)(C)S3)CC2)c1", "Percent Effect": -41.48}
{"smiles": "COCc1ccccc1C(=O)NS(=O)(=O)c1ccc2c(c1)CCC(=O)N2", "Percent Effect": -30.92}
{"smiles": "O=C(O)C(F)(F)F.[H][C@@]12CCCO[C@]1([H])[C@@H](OCC1CCOCC1)CN2Cc1ccccc1F", "Percent Effect": -33.32}
{"smiles": "CCC(C(=O)NCCc1ccn(-c2ccccc2)n1)N1CCCC1=O", "stereo": "stereo unspecified", "Percent Effect": -6.42}
{"smiles": "CSc1cccc(CNC(=O)C2CC(=O)N(CCN(C)C)C2)c1", "stereo": "stereo unspecified", "Percent Effect": -4.747}
{"smiles": "CC(C)C(C)(C#N)NC(=O)Cn1cc(-c2ccccc2)cn1", "stereo": "stereo unspecified", "Percent Effect": 3.71}
{"smiles": "CC(C)S(=O)(=O)NC(=O)c1cc(-c2cccc(Cl)c2)no1", "Percent Effect": -12.67}
{"smiles": "CC(=O)N1CCN(C(=O)Cc2cnc(-c3c(Cl)cccc3Cl)s2)CC1", "Percent Effect": -31.86}
{"smiles": "O[C@@H]1CN(Cc2ccncc2)C[C@H]1Oc1ccccc1", "Percent Effect": -11.16}
{"smiles": "C[C@@H]1CN(Cc2cccnc2)C[C@]12CCN(CCN1CCCC1)C2=O.O=C(O)C(F)(F)F.O=C(O)C(F)(F)F.O=C(O)C(F)(F)F", "Percent Effect": -30.87}
{"smiles": "O=C1C(Nc2ncccn2)CCN1c1ccccc1OC(F)F", "stereo": "stereo unspecified", "Percent Effect": -39.44}
{"smiles": "COc1cccc(Cl)c1C(C(=O)O)N(C)Cc1c(C)n[nH]c1C", "stereo": "stereo unspecified", "Percent Effect": -5.753}
{"smiles": "CCc1nc(C2CCCN2C(=O)c2cnc3n[nH]c(C)c3c2)no1", "stereo": "stereo unspecified", "Percent Effect": -1.728}
{"smiles": "Cc1cc(CNC2(c3ccccc3F)CC2)no1", "Percent Effect": -8.025}
{"smiles": "Cn1nc(CO)c2c1CCN(c1ncnc3c1CCNCC3)C2", "Percent Effect": 2.062}
{"smiles": "Cn1cccc1CN1CCC2(CC1)CC(Oc1cccnc1)C2.O=C(O)C(F)(F)F.O=C(O)C(F)(F)F", "Percent Effect": -55.42}
{"smiles": "CCOC(=O)CCCc1ccc2c(c1)CC(=O)N2", "Percent Effect": -18.53}
{"smiles": "Cc1ccc(OC2(C(=O)N(C)Cc3ccoc3)CCNCC2)cc1", "Percent Effect": 91.09}
{"smiles": "Cc1cccc(CNCCOc2ccc(S(C)(=O)=O)cc2)c1", "Percent Effect": -24.19}
{"smiles": "COc1nccnc1N1CCN(Cc2cccc(F)c2)C(=O)C1", "Percent Effect": -31.24}
{"smiles": "COCCn1cncc1CN1CCCC(C)(c2ccccc2)C1", "stereo": "stereo unspecified", "Percent Effect": -43.69}
{"smiles": "CC(C)C1CN(C(=O)c2ccc(Cl)cn2)CCCN1CC1CC1", "stereo": "stereo unspecified", "Percent Effect": -6.365}
{"smiles": "c1cc(N2CCOCC(Cc3ccc4[nH]ccc4c3)C2)ncn1", "stereo": "stereo unspecified", "Percent Effect": -4.218}
{"smiles": "CCn1c(N)nc2cc(C(=O)N3CCC(N4CCCC4)CC3)cnc21", "Percent Effect": -20.3}
{"smiles": "COCCS(=O)(=O)N(Cc1ccsc1)c1ccccc1", "Percent Effect": 3.285}
{"smiles": "CCc1ccc(C(=O)N2CCC(c3nncn3CC)CC2)o1", "Percent Effect": -11.34}
{"smiles": "O=C(O)C(F)(F)F.O=C(O)C(F)(F)F.O=C(O)C(F)(F)F.[H][C@@]12COC[C@]1(COCc1ccncc1)CN(Cc1ccncc1)C2", "Percent Effect": -36.39}
{"smiles": "CCC(C)(CC(=O)OC)NC(=O)c1cccc(F)c1F", "stereo": "stereo unspecified", "Percent Effect": -46.5}
{"smiles": "CC(C)c1nn(C)c(N(C)C)c1CNC1CCCOc2ccccc21", "stereo": "stereo unspecified", "Percent Effect": -64.78}
{"smiles": "CC(C)CC(O)C1CCN(C(=O)c2ccc(C(F)(F)F)nc2O)CC1", "stereo": "stereo unspecified", "Percent Effect": -17.09}
{"smiles": "CN(Cc1ccc2nsnc2c1)C(=O)Cn1ncc(N(C)C)cc1=O", "Percent Effect": 16.77}
{"smiles": "O=C(c1ccc2[nH]ccc2c1)N1CCCSCC1CN1CCCC1", "stereo": "stereo unspecified", "Percent Effect": 12.98}
{"smiles": "CCC(C)(NCC(=O)NC(=O)NC)c1nccs1", "stereo": "stereo unspecified", "Percent Effect": -16.52}
{"smiles": "Cc1cccc2c1nc1n2[C@@H](CNC(=O)c2cncnc2)COC1", "Percent Effect": -6.305}
{"smiles": "COC(=O)c1cccc(C(=O)NCc2ccc3c(c2)CCCN3C)c1", "Percent Effect": 1.912}
{"smiles": "Cc1nn(C)cc1-c1cc(C(F)(F)F)n(CCCN)n1", "Percent Effect": -20.67}
{"smiles": "CCOC(=O)NC(CNC(=O)CCc1ccccn1)CC(C)C", "stereo": "stereo unspecified", "Percent Effect": 13.01}
{"smiles": "CC(C)COC(C)C(=O)N1CCCC1", "stereo": "stereo unspecified", "Percent Effect": -19.94}
{"smiles": "CCC(CC)C(=O)N1CCN(C)c2ncccc2C1", "Percent Effect": -74.45}
{"smiles": "CCC(=O)N1CCCCC1c1nc(N(C)C)ncc1-c1cc(C)no1", "stereo": "stereo unspecified", "Percent Effect": 13.68}
{"smiles": "CCOc1nnc(CN2CCC(c3cc4ccccc4[nH]3)CC2)s1", "Percent Effect": 31.12}
{"smiles": "Cc1nc(N2CCN(C(=O)c3ccccc3)CC2)c2c(n1)c(C)nn2C", "Percent Effect": 12.55}
{"smiles": "CN1C[C@@H](n2cnc(-c3ccccc3)c2-c2ccccn2)C[C@H]1C(=O)O", "Percent Effect": -14.46}
{"smiles": "CN(CCOc1cccc(F)c1)CC(=O)Nc1ccncc1", "Percent Effect": -10.11}
{"smiles": "Cc1ccc(-c2nn(-c3cccc(F)c3)cc2CN(CCO)CCO)o1", "Percent Effect": -32.72}
{"smiles": "O=C(O)C(F)(F)F.O=C(O)C(F)(F)F.[H][C@@]12OCCC[C@]1([H])N(Cc1cc(C)c(C)o1)C[C@@H]2N1CCOCC1", "Percent Effect": -105.4}
{"smiles": "O=C(O)C(F)(F)F.O=C(O)C(F)(F)F.[H][C@@]12COC[C@]1([H])[C@@H](OCc1ccccn1)CN2Cc1cccc(C)n1", "Percent Effect": -45.91}
{"smiles": "COCC1CN(c2ccc(C)nn2)Cc2cnn(CC3CCOCC3)c21.O=C(O)C(F)(F)F.O=C(O)C(F)(F)F", "stereo": "stereo unspecified", "Percent Effect": -39.18}
{"smiles": "CCc1nc2n(n1)CC(NCc1cn(C)nc1-c1cccnc1)CC2", "stereo": "stereo unspecified", "Percent Effect": 10.15}
{"smiles": "FC(F)(F)c1nc(NC2CCc3ncnn3C2)c2ccccc2n1", "stereo": "stereo unspecified", "Percent Effect": 17.85}
{"smiles": "Cc1ccccc1OCCC(=O)OC(C)C(=O)Nc1sccc1C(N)=O", "stereo": "stereo unspecified", "Percent Effect": -41.11}
{"smiles": "CC(C)(NC(=O)c1coc(COc2cccc(F)c2)n1)C(N)=O", "Percent Effect": -175.6}
{"smiles": "NC(=O)C1CN(C(=O)Nc2ccccc2SC2CCCC2)CCO1", "stereo": "stereo unspecified", "Percent Effect": -1.994}
{"smiles": "[H][C@@]12CCCO[C@]1([H])[C@H](NC(=O)C1CC1)CN2Cc1cccs1", "Percent Effect": -26}
{"smiles": "CN(C)C1CCN(C(=O)CCc2cc(Br)cs2)CC1", "Percent Effect": 2.534}
{"smiles": "O=C(NCC1(O)CCOc2ccccc21)Nc1ccccc1", "stereo": "stereo unspecified", "Percent Effect": -15.42}
{"smiles": "COCC1(C(=O)N[C@H]2CN(c3nnc(C)s3)C[C@@H]2C2CC2)CCC1", "Percent Effect": -43.6}
{"smiles": "Cc1cnn(CC2CN(CC(=O)NCc3ccccn3)CCO2)c1", "stereo": "stereo unspecified", "Percent Effect": -21.75}

The first 3 entries again:

{"smiles": "CC(=O)Nc1cccc(CN2CCN(C3=NCC(C)(C)S3)CC2)c1", "Percent Effect": -41.48}
{"smiles": "COCc1ccccc1C(=O)NS(=O)(=O)c1ccc2c(c1)CCC(=O)N2", "Percent Effect": -30.92}
{"smiles": "O=C(O)C(F)(F)F.[H][C@@]12CCCO[C@]1([H])[C@@H](OCC1CCOCC1)CN2Cc1ccccc1F", "Percent Effect": -33.32}